# In patent US20140274906A1 (NONO, published 2014):
# These are yes or no findings as the source states them, for the method shown. Some entries that bind do so weakly or less than the wild type. Where a sequence is shown, tags or fusion partners need not be part of it.
# T1: biotinylated Src 40-58 peptide (human, also: biotinylated, position not given here)
# T1 construct: Probe in dot blots (~15 ug/ml) and ELISA (6 uM); also called biotin-Src 40-58; Biotin-Src 40-58
# T1 peptide: KPASADGHRGPSAAFVPAA
# T2: biotinylated Src40-49 peptide (human, also: biotinylated, position not given here)
# T2 construct: Labelled probe; also called bio-Src 40-49; Bio-Src40-49
# T2 peptide: KPASADGHRG
# Target: T1, biotinylated Src 40-58 peptide
# Experiment: ELISA (FIG. 3C); member of FIG. 3A by SEQ ID NO 25
row,binding,Binder
1,binds,"KWQFEHTK (peptide, not shown: a dimerising Fc or GST) [ND2 314-321 (GST construct)]"

# Target: T2, biotinylated Src40-49 peptide
# Experiment: ELISA (FIG. 4B)
row,binding,Binder
1,binds,"NVKMKWQFEHTK (peptide, not shown: a dimerising Fc or GST) [ND2 310-321 (GST construct)]"
2,binds,"NVKMKWQFE (peptide, not shown: a dimerising Fc or GST) [ND2 310-318 (ND2 construct of FIG. 4)]"
3,binds,"MSNNVKMKWQFE (peptide, not shown: a dimerising Fc or GST) [ND2 307-318 (ND2 construct of FIG. 4)]"

# Target: T2, biotinylated Src40-49 peptide
# Experiment: dot blot (FIG. 4A)
row,binding,Binder
1,binds,"NVKMKWQFEHTK (peptide, not shown: a dimerising Fc or GST) [ND2 310-321 (GST construct)]"
2,binds,"NVKMKWQFE (peptide, not shown: a dimerising Fc or GST) [ND2 310-318 (ND2 construct of FIG. 4)]"
3,binds,"MSNNVKMKWQFE (peptide, not shown: a dimerising Fc or GST) [ND2 307-318 (ND2 construct of FIG. 4)]"

# Target: T1, biotinylated Src 40-58 peptide
# Experiment: ELISA (FIG. 3C); member of FIG. 3A by SEQ ID NO 21
row,binding,Binder
1,binds,"ITLLPMSNNVKMKWQFEHTK (peptide, not shown: a dimerising Fc or GST) [ND2 302-321 (GST construct)]"

# Target: T1, biotinylated Src 40-58 peptide
# Experiment: dot blot (FIG. 4A); the legend prints Src 40-58, the text Src 40-49
row,binding,Binder
1,binds,"NVKMKWQFEHTK (peptide, not shown: a dimerising Fc or GST) [ND2 310-321 (GST construct)]"
2,binds,"NVKMKWQFE (peptide, not shown: a dimerising Fc or GST) [ND2 310-318 (ND2 construct of FIG. 4)]"
3,binds,"MSNNVKMKWQFE (peptide, not shown: a dimerising Fc or GST) [ND2 307-318 (ND2 construct of FIG. 4)]"

# Target: T1, biotinylated Src 40-58 peptide
# Experiment: dot blot of GST proteins probed with Biotin-Src 40-58 (FIG. 3B)
row,binding,Binder
1,binds,"NLYFYLRLIYSTSITLLPMSN (peptide, not shown: a dimerising Fc or GST) [ND2 289-309 (GST construct)]"
2,binds,"STSITLLPMSNNVKMKWQFE (peptide, not shown: a dimerising Fc or GST) [ND2 299-318 (GST construct)]"

# More lines, now with the values behind:
row,Binder,binding
1,"MSNNVKMKWQFEHTK (peptide, not shown: a dimerising Fc or GST) [ND2 307-321 (GST construct)]",binds
2,"NVKMKWQFEHTK (peptide, not shown: a dimerising Fc or GST) [ND2 310-321 (GST construct)]",binds
3,"ITLLPMSNNVKMKWQFEHTK (peptide, not shown: a dimerising Fc or GST) [ND2 302-321 (GST construct)]",binds

# Target: T1, biotinylated Src 40-58 peptide
# Experiment: ELISA (FIG. 3C)
row,binding,Binder
1,binds,"NLYFYLRLIYSTSITLLPMSN (peptide, not shown: a dimerising Fc or GST) [ND2 289-309 (GST construct)]"
2,binds,"STSITLLPMSNNVKMKWQFE (peptide, not shown: a dimerising Fc or GST) [ND2 299-318 (GST construct)]"
3,binds,"YFYLRLIYSTSIT (peptide, not shown: a dimerising Fc or GST) [ND2 291-303 (GST construct)]"

# Further lines, the binder ahead of its results:
row,Binder,binding
1,"MSNNVKMKWQFEHTK (peptide, not shown: a dimerising Fc or GST) [ND2 307-321 (GST construct)]",binds
2,"NVKMKWQFEHTK (peptide, not shown: a dimerising Fc or GST) [ND2 310-321 (GST construct)]",binds
3,"KWQFEHTK (peptide, not shown: a dimerising Fc or GST) [ND2 314-321 (GST construct)]",binds
4,"ITLLPMSNNVKMKWQFEHTK (peptide, not shown: a dimerising Fc or GST) [ND2 302-321 (GST construct)]",binds

# Target: T1, biotinylated Src 40-58 peptide
# Experiment: ELISA (FIG. 3C); member of FIG. 3A by SEQ ID NO 18
row,binding,Binder
1,binds,"YFYLRLIYSTSIT (peptide, not shown: a dimerising Fc or GST) [ND2 291-303 (GST construct)]"
